The supplement of paper PMC5836539
± gives the standard deviation of the averaged measurements. Single values are uncertain here, since repeats match poorly.

Amino acid sequences for entries named in this document (tags omitted). A change or cut given only in a name is not applied to a line headed by its entry.
UniProt O60841: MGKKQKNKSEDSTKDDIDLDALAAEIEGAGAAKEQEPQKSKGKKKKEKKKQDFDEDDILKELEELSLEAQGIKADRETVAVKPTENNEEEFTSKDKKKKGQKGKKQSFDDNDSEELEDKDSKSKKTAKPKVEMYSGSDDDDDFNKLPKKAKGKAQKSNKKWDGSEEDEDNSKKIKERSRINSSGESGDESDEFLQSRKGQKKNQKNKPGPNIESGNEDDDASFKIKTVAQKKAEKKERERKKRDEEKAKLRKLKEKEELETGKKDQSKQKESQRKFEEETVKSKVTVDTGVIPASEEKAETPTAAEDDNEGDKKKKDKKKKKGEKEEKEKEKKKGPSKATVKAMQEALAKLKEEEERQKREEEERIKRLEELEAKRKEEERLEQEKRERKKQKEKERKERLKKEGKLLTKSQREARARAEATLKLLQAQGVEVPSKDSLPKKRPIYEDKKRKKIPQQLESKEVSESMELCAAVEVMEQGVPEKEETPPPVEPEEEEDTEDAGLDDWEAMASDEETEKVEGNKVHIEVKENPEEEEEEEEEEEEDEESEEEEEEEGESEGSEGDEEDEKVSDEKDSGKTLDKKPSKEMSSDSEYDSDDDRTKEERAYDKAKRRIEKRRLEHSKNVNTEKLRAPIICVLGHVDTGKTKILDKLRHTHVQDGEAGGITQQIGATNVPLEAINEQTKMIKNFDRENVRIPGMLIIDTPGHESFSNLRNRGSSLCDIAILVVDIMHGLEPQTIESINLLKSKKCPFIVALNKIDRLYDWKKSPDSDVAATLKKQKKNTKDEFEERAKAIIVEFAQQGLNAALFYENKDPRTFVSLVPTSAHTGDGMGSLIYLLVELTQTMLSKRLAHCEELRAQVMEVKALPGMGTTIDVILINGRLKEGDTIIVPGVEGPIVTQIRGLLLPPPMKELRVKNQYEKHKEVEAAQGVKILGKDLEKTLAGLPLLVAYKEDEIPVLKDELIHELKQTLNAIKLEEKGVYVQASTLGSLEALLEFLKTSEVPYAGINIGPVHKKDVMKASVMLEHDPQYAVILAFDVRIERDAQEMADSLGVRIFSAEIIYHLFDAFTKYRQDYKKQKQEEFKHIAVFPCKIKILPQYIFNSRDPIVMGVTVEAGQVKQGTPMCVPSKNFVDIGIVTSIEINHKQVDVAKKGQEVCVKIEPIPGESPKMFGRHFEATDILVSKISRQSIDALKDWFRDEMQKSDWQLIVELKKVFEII
UniProt P07814: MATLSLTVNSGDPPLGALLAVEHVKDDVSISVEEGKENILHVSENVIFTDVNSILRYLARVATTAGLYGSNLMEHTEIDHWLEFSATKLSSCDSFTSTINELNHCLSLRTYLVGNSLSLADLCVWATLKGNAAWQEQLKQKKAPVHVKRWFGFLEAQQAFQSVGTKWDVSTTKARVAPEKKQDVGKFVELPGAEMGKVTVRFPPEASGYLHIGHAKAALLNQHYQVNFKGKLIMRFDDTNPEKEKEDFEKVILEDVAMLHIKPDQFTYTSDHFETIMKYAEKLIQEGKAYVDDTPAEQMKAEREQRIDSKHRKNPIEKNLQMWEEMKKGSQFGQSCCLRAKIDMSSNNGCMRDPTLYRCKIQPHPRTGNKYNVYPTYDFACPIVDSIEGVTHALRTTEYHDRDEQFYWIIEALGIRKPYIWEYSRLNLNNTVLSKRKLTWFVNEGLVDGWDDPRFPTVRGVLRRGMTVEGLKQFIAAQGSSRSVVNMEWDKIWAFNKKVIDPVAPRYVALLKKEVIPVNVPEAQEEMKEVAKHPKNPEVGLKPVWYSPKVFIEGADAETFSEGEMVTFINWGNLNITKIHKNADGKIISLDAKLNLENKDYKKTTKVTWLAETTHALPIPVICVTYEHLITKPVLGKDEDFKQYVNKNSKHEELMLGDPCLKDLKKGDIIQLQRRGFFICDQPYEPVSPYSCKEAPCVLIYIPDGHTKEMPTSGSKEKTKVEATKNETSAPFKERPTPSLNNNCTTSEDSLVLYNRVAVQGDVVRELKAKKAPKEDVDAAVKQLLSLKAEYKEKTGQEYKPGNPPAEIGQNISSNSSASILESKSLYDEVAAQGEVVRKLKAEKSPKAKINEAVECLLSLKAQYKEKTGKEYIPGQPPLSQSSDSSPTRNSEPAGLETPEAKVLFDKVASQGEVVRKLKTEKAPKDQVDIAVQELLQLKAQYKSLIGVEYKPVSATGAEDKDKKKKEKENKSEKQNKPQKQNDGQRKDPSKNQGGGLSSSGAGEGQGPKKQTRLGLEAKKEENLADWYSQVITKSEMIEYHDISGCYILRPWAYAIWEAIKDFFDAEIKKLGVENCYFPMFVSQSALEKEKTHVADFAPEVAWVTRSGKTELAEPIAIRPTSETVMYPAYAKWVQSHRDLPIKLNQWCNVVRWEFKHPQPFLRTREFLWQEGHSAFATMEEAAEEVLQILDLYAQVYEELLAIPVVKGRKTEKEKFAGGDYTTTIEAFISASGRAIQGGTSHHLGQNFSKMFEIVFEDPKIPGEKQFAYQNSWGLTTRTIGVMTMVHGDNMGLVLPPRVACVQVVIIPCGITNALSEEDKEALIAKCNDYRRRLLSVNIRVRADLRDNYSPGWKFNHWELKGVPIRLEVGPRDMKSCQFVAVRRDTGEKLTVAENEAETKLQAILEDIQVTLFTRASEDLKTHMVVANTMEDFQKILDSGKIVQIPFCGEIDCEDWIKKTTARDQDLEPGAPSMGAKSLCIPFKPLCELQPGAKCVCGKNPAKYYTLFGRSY
UniProt Q9UBC2: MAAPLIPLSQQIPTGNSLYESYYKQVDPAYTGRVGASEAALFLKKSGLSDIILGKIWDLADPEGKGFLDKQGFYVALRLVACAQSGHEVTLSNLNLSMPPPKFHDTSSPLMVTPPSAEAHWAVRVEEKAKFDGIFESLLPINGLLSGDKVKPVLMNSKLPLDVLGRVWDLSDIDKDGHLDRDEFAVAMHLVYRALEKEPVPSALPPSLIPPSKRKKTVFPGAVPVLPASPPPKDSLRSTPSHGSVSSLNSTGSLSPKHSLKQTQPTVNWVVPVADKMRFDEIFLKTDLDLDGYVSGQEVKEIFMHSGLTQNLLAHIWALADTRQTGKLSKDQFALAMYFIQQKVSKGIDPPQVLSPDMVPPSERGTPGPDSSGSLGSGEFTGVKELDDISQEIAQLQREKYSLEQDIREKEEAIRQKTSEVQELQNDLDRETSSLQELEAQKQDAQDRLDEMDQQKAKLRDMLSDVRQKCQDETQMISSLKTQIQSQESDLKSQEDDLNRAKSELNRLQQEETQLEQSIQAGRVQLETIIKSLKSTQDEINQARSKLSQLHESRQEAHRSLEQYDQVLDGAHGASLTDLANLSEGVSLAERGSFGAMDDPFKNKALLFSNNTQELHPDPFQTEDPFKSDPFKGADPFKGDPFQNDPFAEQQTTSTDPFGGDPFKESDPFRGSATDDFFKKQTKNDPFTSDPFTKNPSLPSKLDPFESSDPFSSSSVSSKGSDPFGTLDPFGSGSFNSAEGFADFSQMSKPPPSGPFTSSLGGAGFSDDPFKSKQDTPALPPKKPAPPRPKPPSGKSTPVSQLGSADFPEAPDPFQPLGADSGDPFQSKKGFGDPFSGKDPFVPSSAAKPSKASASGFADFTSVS
UniProt Q96E09: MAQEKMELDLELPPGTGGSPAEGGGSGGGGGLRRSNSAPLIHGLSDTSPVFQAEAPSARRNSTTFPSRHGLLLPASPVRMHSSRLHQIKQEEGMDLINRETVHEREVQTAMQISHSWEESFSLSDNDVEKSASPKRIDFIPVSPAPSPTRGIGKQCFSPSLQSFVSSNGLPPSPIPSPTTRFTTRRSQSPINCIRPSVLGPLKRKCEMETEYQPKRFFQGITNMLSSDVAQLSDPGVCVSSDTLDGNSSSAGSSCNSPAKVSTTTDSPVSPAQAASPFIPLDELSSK
UniProt Q9Y4F1: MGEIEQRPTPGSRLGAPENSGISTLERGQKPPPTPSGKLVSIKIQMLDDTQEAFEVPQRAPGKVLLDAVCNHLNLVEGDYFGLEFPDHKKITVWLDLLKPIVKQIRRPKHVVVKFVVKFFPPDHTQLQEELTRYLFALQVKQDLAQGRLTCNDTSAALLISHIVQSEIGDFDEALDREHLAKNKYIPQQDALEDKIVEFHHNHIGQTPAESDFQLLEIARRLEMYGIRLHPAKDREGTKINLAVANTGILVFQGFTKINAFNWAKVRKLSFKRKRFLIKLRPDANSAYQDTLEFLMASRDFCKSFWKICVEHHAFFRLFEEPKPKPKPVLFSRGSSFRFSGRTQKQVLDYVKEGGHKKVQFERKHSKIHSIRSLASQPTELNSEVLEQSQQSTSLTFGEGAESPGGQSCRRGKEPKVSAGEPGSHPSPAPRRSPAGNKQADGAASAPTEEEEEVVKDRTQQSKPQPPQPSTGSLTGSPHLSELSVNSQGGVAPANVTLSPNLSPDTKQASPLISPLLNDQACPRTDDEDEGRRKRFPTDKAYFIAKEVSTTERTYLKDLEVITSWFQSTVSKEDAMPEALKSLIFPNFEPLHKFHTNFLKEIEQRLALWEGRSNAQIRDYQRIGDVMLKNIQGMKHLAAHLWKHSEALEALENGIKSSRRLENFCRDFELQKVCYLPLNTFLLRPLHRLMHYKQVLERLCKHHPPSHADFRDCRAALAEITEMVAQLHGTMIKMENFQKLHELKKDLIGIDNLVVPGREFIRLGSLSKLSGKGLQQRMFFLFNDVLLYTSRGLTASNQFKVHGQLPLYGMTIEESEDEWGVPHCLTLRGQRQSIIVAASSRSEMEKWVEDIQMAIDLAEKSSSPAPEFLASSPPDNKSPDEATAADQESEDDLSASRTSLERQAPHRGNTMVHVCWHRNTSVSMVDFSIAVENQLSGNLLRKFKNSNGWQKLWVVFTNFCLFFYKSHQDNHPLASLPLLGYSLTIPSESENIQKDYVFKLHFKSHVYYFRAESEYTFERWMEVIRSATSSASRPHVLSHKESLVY
UniProt Q13283, whole entry, looked up: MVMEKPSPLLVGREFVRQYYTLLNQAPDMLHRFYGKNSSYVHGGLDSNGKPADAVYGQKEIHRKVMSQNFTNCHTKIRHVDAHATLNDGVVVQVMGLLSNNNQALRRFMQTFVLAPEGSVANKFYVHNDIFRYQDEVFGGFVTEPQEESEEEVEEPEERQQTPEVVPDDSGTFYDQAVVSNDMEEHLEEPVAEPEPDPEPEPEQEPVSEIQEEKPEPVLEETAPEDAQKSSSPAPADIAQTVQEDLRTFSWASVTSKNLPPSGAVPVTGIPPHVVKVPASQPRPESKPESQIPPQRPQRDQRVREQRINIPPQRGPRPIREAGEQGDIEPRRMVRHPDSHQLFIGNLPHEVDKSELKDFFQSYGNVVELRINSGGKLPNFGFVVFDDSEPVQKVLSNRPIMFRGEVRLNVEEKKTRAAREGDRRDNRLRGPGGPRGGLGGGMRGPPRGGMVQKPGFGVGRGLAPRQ
UniProt P13984, whole entry: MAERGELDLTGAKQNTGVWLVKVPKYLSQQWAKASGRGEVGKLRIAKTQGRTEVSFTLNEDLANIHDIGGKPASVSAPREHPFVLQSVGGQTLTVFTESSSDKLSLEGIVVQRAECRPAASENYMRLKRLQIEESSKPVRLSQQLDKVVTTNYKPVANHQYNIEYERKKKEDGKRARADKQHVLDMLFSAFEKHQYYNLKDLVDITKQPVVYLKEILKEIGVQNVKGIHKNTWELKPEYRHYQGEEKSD
UniProt Q92522: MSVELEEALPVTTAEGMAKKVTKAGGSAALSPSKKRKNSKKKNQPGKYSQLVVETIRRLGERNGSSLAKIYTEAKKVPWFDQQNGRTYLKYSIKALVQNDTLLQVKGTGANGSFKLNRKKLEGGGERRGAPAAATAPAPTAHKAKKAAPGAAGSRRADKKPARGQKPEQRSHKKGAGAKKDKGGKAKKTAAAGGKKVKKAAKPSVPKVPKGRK
UniProt P51858: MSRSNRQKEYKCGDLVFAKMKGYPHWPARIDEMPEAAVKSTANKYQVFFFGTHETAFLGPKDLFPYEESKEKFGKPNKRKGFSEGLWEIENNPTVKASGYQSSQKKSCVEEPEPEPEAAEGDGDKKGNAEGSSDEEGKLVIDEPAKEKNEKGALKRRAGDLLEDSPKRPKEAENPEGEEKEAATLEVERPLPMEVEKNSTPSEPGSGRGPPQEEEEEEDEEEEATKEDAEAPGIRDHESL
UniProt P31943: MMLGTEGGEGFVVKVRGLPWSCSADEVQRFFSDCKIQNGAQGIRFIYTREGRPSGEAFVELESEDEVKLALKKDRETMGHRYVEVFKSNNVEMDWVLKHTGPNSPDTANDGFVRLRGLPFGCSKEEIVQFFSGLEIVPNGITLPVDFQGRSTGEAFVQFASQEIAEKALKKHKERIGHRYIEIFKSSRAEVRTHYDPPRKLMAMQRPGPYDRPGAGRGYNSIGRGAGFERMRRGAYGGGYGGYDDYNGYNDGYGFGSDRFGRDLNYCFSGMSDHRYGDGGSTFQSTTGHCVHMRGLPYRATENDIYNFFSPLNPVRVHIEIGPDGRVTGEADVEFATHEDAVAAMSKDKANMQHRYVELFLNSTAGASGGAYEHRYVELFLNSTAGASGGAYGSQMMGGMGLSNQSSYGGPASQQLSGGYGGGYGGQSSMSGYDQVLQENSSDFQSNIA

Key:
XL888 [1] = compound: T1, CC[C@@H](C)Nc1cc(C(=O)N[C@H]2C[C@H]3CC[C@@H](C2)N3c2ccc(C(=O)C3CC3)cn2)c(C)cc1C(N)=O [XL888]; assay: phosphopeptide melting temperature shift (XL888 minus DMSO); higher = stabilised by drug treatment; settings: 100 µM; treatment time 2 h; layout: intact cells; SK-Mel 28
Experimental: (§1)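 Phospho-TPP in intact SK-Mel 28 cells treated with 100 uM XL888 or DMSO for 2 h, heated at 10 temperatures (37-67 C) for 3 min, soluble fraction TMT10plex-labelled and TiO2 phospho-enriched. Melting curves were fitted per phosphopeptide; the value is the melting point difference (drug minus vehicle) in each of two biological replicates.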

XL888 [2] = compound: T1, XL888; assay: as above; settings: 100 µM; treatment time 2 h; layout: intact cells; SK-Mel 24
Experimental: as §1, with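 “24” for “28”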

| Target | phosphopeptide melting temperature shift (XL888 [1]) [°C] | phosphopeptide melting temperature shift (XL888 [2]) [°C] |
| --- | --- | --- |
| EIF5B phosphosite_113 (phosphosite position: 113) (UniProt O60841) | 1.37 ± 0.45 | 2.35 |
| EIF5B phosphosite_214 (phosphosite position: 214) (UniProt O60841) | 0.604 ± 0.15 | 0.103 |
| EIF5B phosphosite_511 (phosphosite position: 511) (UniProt O60841) | 1.59 | -0.108 |
| EPRS phosphosite_886 (phosphosite position: 886) (UniProt P07814) | 1.24 | 1.96 |
| EPS15 phosphosite_796 (phosphosite position: 796) (UniProt P42566) | -0.545 | 2.01 ± 0.66 |
| EPS15 phosphosite_814 (phosphosite position: 814) (UniProt P42566) | 0.72 | 0.444 |
| EPS15L1 phosphosite_229 (phosphosite position: 229) (UniProt Q9UBC2) | -0.372 | -0.812 ± 0.03 |
| FAM122A phosphosite_147 (phosphosite position: 147) (UniProt Q96E09) | -1.93 ± 3.3 | -0.055 |
| FARP1 phosphosite_427 (phosphosite position: 427) (UniProt Q9Y4F1) | 1.93 ± 0.69 | 1.44 |
| G3BP1 phosphosite_149 (phosphosite position: 149) (UniProt Q13283) | 1.79 | -1.53 |
| G3BP1 phosphosite_232 (phosphosite position: 232) (UniProt Q13283) | -0.197 ± 1.3 | -0.472 |
| GIGYF2 phosphosite_26 (phosphosite position: 26) (UniProt Q6Y7W6) | 0.692 | 0.625 ± 0.41 |
| GIGYF2 phosphosite_382 (phosphosite position: 382) (UniProt Q6Y7W6) | -0.422 ± 4.7 | -0.911 |
| GTF2F2 phosphosite_248 (phosphosite position: 248) (UniProt P13984) | 1.82 | 0.372 |
| H1FX phosphosite_31 (phosphosite position: 31) (UniProt Q92522) | -1.38 ± 2 | -1.25 |
| HDAC1 phosphosite_393 (phosphosite position: 393) (UniProt Q13547) | 1.11 ± 0.46 | -0.0977 |
| HDGF phosphosite_132 (phosphosite position: 132) (UniProt P51858) | 1.004 ± 0.0035 | -0.469 |
| HDGF phosphosite_165 (phosphosite position: 165) (UniProt P51858) | 2.14 | 1.14 ± 0.35 |
| HNRNPH1 phosphosite_104 (phosphosite position: 104) (UniProt P31943) | 2.73 ± 3.4 | 0.504 |
| HS1BP3 phosphosite_194 (phosphosite position: 194) (UniProt Q53T59) | 2.61 | 0.136 ± 0.068 |
| HSP90AA1 phosphosite_231 (phosphosite position: 231) (UniProt P07900) | 7.45 ± 0.11 | 7.6043 ± 0.0015 |
| HSP90AA1 phosphosite_263 (phosphosite position: 263) (UniProt P07900) | 7.78 ± 0.1 | 7.8 ± 0.14 |
| HSP90AA2P phosphosite_263 (phosphosite position: 263) (UniProt Q14568) | 6.14 | 7.08 |

Record cards, from the list above:
FARP1 phosphosite_427 (phosphosite position: 427) (UniProt Q9Y4F1) as listed: phosphopeptide melting temperature shift (XL888 [1]) [°C]: 1.93 ± 0.69; phosphopeptide melting temperature shift (XL888 [2]) [°C]: 1.44
FAM122A phosphosite_147 (phosphosite position: 147) (UniProt Q96E09) as listed: phosphopeptide melting temperature shift (XL888 [1]) [°C]: -1.93 ± 3.3; phosphopeptide melting temperature shift (XL888 [2]) [°C]: -0.055
